# According to patent publication US20030040531A1, “Remedies for reperfusion injury containing integrin alphanubeta 3 antagonist” (priority 2000, published 2003):
# Test system: hamster acute ischemia-reperfusion model
# Assay: hamster acute ischemia-reperfusion model
# Format: in vivo
# Conditions: average±SE, n=5, solvent administration group 53.6±3.6%
# Experimental: A polyethylene tube was inserted into the carotid artery and the survical vein of Syrian male hamsters (10 to 13 weeks old) under pentobarbital anesthesia (60 mg/kg, i.p.). An electrocardiogram (I or II leading) was measured through a bioelectricity amplifier by leading from electrodes which had pierced the limbs. A polyethylene tube was inserted into the trachea, and artificial respiration was carried out with an artificial respirator (amount of ventilation: 10 ml/kg/stroke, number of times of ventilation: 70 strokes/min). The blood pressure was measured through a blood pressure amplifier, and the heart rate was measured with a heart rate unit using blood pressure as a trigger. […] Ischemia for 90 min was followed by reperfusion for 2 hr to quantitatively determine myocardial infarct size.
# A sodium salt of the compound represented by formula (IV) was mixed with a 2-fold equivalent of arginine, and the mixture was dissolved in a 5% glucose solution. […] For each slice, the left ventricle (LV) was separated, and the weight of the left ventricle and the weight of the area-at-risk (AR) were measured. The area-at-risk was stained with a 50 mM Tris.HCl (pH 7.4, 37° C.) buffer containing 1.5% triphenyltetrazolium chloride heated at 37° C., and the weight of the infarct area (IS; infarct size) was measured. […]
smiles,measurement,setting,value
"O=C(NCC(NS(=O)(=O)c1ccccc1)C(=O)O)c1ccc(N2CCC(NC3=NCCCN3)CC2)c(F)c1 (stereo in doubt) [formula (IV), (2S)-Benzenesulfonylamino-3-[3-fluoro-4-{4-(1,4,5,6-tetrahydropyrimidin-2-ylamino)-piperidin-1-yl}benzoylamino]propionic Acid]",ischemia area in the left ventricle (AR/LV),group H 1.0 mg/kg+1.0 mg/kg/h,51.4±4.3%
same,ischemia area in the left ventricle (AR/LV),group L 0.33 mg/kg+0.33 mg/kg/h,51.5±3.0%
